Measurements from patent US8399503B2, “Spirocyclic azaindole derivatives” (Gruenenthal GmbH, priority 2006, dated 2013).
pKi: −log10 of the molar value. The structures given here were assigned with low confidence; some may be wrong.

By UniProt entry, the sequences of proteins in these tests, tags left out.
UniProt P35372, whole entry: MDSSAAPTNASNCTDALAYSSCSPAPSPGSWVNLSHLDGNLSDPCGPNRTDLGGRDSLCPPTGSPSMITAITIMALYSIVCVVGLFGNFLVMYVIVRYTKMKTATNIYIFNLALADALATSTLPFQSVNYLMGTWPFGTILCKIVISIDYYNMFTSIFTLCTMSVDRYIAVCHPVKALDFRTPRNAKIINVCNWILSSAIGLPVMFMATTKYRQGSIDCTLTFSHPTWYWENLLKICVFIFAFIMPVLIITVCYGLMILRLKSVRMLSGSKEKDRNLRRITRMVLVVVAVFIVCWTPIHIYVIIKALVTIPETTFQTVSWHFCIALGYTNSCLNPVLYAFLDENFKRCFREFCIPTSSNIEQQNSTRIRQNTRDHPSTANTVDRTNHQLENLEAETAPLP

Biological target: human μ-opiate receptor (Homo sapiens, UniProt P35372)
Assay: μ binding: [3H]-naloxone displacement, membrane preparation of CHO-K1 cells expressing the human μ-opiate receptor
Conditions: read-out: μ-Opioid receptor, Ki value; [3H]-naloxone 1 nmole/l; Cheng-Prusoff conversion; tested form: citrate (4:3)

## CN(C)C1(c2ccccc2)CCC2(CC1)OCCc1c2[nH]c2ncccc12 (stereo not shown)
  pKi: 7.60
